Experimental data: PubChem BioAssay AID652243 (Drosophila RNAi Screening Center, 2013)
The deposit covers about 24,000 reagents; this is a random part of those with a known target gene and a result. Of all reagents, 246 (1%) were called active. 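Plates not normalised; calls are printed but the firefly/Renilla ratio behind them is not deposited; fold cut for lowering reported inconsistently.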 The raw values are shown without normalisation. Unmarked entries are inactive. Not given: the amount of reagent.

- Screen: 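Knock-downs that decrease or increase androgen receptor reporter signal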 (primary screen)
- Cells: Drosophila S2R+ cells
- Reagent: long dsRNA against Drosophila genes
- Time to read-out: 72 h (48 h, then 24 h hormone)
- Conditions: synthetic androgen R1881 at 10 nM for 24 h
- Measured: 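Per-well raw luminescence of the androgen-driven firefly reporter and of the Renilla control, two replicates each, without normalisation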
- Reading the numbers: firefly reporter light: higher = more light from androgen-responsive reporter; Renilla control light: higher = more constitutive control signal (cell number, transfection)
- Active means: 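Across duplicate plates, a knock-down whose log firefly/Renilla ratio shifted a set fold down or up from the GFP/LacZ control mean was a hit; the downward cut appears as both 1.5 and 3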
- Calls: active = hit: reporter lowered or raised; inactive = no hit

CG11444 [DRSC17784]
- firefly reporter light, replicate 1: 77511
- firefly reporter light, replicate 2: 53568
- Renilla control light, replicate 1: 6.71e5
- Renilla control light, replicate 2: 4.03e5

CG11444 [DRSC24827]
- firefly reporter light, replicate 1: 6.24e5
- firefly reporter light, replicate 2: 7.14e5
- Renilla control light, replicate 1: 6.92e5
- Renilla control light, replicate 2: 6.94e5

obst-F [DRSC10805]
- firefly reporter light, replicate 1: 2.21e5
- firefly reporter light, replicate 2: 2.39e5
- Renilla control light, replicate 1: 1.72e6
- Renilla control light, replicate 2: 1.92e6

obst-F [DRSC30097]
- firefly reporter light, replicate 1: 7.00e5
- firefly reporter light, replicate 2: 1.05e6
- Renilla control light, replicate 1: 1.42e6
- Renilla control light, replicate 2: 1.60e6

Cyp6a9 [DRSC07385]
- firefly reporter light, replicate 1: 1.02e5
- firefly reporter light, replicate 2: 98621
- Renilla control light, replicate 1: 3.95e6
- Renilla control light, replicate 2: 3.95e6

Dis3 [DRSC16034]
- firefly reporter light, replicate 1: 37761
- firefly reporter light, replicate 2: 59490
- Renilla control light, replicate 1: 4.66e5
- Renilla control light, replicate 2: 5.42e5

Lmpt [DRSC09450]
- firefly reporter light, replicate 1: 50999 (active)
- firefly reporter light, replicate 2: 35518
- Renilla control light, replicate 1: 6.65e5
- Renilla control light, replicate 2: 5.43e5

Lmpt [DRSC09864]
- firefly reporter light, replicate 1: 2.80e5
- firefly reporter light, replicate 2: 2.25e5
- Renilla control light, replicate 1: 2.47e6
- Renilla control light, replicate 2: 2.41e6

Lmpt [DRSC09865]
- firefly reporter light, replicate 1: 39807
- firefly reporter light, replicate 2: 34345
- Renilla control light, replicate 1: 4.96e5
- Renilla control light, replicate 2: 3.83e5

Lmpt [DRSC09866]
- firefly reporter light, replicate 1: 3.16e5
- firefly reporter light, replicate 2: 2.55e5
- Renilla control light, replicate 1: 2.15e6
- Renilla control light, replicate 2: 2.43e6

Lmpt [DRSC11107]
- firefly reporter light, replicate 1: 3.15e5
- firefly reporter light, replicate 2: 2.95e5
- Renilla control light, replicate 1: 3.44e6
- Renilla control light, replicate 2: 3.53e6

Lmpt [DRSC21738]
- firefly reporter light, replicate 1: 4.40e5
- firefly reporter light, replicate 2: 5.93e5
- Renilla control light, replicate 1: 2.12e6
- Renilla control light, replicate 2: 2.81e6

Lmpt [DRSC22921]
- firefly reporter light, replicate 1: 4.44e5
- firefly reporter light, replicate 2: 8.61e5
- Renilla control light, replicate 1: 8.57e5
- Renilla control light, replicate 2: 1.88e6

Lmpt [DRSC25095]
- firefly reporter light, replicate 1: 4.08e5
- firefly reporter light, replicate 2: 5.55e5
- Renilla control light, replicate 1: 4.86e5
- Renilla control light, replicate 2: 5.88e5

Lmpt [DRSC25282]
- firefly reporter light, replicate 1: 8.94e5
- firefly reporter light, replicate 2: 1.11e6
- Renilla control light, replicate 1: 1.05e6
- Renilla control light, replicate 2: 1.31e6

Lmpt [DRSC29293]
- firefly reporter light, replicate 1: 5.45e5
- firefly reporter light, replicate 2: 6.34e5
- Renilla control light, replicate 1: 1.25e6
- Renilla control light, replicate 2: 1.16e6

Vha100-4 [DRSC16282]
- firefly reporter light, replicate 1: 68410
- firefly reporter light, replicate 2: 96952
- Renilla control light, replicate 1: 8.79e5
- Renilla control light, replicate 2: 1.08e6

Vha100-4 [DRSC26139]
- firefly reporter light, replicate 1: 1.97e5
- firefly reporter light, replicate 2: 2.60e5
- Renilla control light, replicate 1: 6.65e5
- Renilla control light, replicate 2: 6.92e5

CG10650 [DRSC02085]
- firefly reporter light, replicate 1: 1.28e6
- firefly reporter light, replicate 2: 1.24e6
- Renilla control light, replicate 1: 1.48e6
- Renilla control light, replicate 2: 1.14e6

CG13449 [DRSC09996]
- firefly reporter light, replicate 1: 2.42e5
- firefly reporter light, replicate 2: 1.75e5
- Renilla control light, replicate 1: 2.46e6
- Renilla control light, replicate 2: 1.47e6

mfrn [DRSC15687]
- firefly reporter light, replicate 1: 2.04e5
- firefly reporter light, replicate 2: 1.40e5
- Renilla control light, replicate 1: 2.28e6
- Renilla control light, replicate 2: 2.34e6
